# Results taken from the supplement of paper PMC8728848.
# This is one part of the list.
# Tests used:
# Assay in all cases: glycan array binding signal (z-score within array); higher = stronger binding
# Conditions in all cases: glycan notation: IUPAC condensed, linker removed
# Gal(a1-6)Glc = biological target: Gal(a1-6)Glc
# In short: (§1)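 Glycan array binding is given as a within-array Z-score, which can be read as non-binding when negative. The arrays, 3228 of them, came from the Consortium for Functional Glycomics database and were retained only where the protein sequence was available. Z-scores were averaged across arrays of the same protein sequence at different concentrations or buffers and across linkers.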
# Gal(b1-2)Gal = biological target: Gal(b1-2)Gal
# In short: as §1
# Gal(b1-3)Gal = biological target: Gal(b1-3)Gal
# In short: as §1
# Gal(b1-3)Gal(b1-4)GlcNAc = biological target: Gal(b1-3)Gal(b1-4)GlcNAc
# In short: as §1
# Gal(b1-3)GalNAc = biological target: Gal(b1-3)GalNAc
# In short: as §1
# [1] = biological target: Gal(b1-3)GalNAc(a1-3)[Fuc(a1-2)]Gal(b1-4)Glc
# In short: as §1
# [2] = biological target: Gal(b1-3)GalNAc(a1-3)[Fuc(a1-2)]Gal(b1-4)GlcNAc
# In short: as §1
# Gal(b1-3)GalNAc(b1-3)Gal = biological target: Gal(b1-3)GalNAc(b1-3)Gal
# In short: as §1
# [3] = biological target: Gal(b1-3)GalNAc(b1-3)Gal(a1-4)Gal(b1-4)Glc
# In short: as §1
# [4] = biological target: Gal(b1-3)GalNAc(b1-4)Gal(b1-4)Glc
# In short: as §1
# [5] = biological target: Gal(b1-3)GalNAc(b1-4)[Neu5Ac(a2-3)]Gal(b1-4)Glc
# In short: as §1
# Gal(b1-3)GlcNAc = biological target: Gal(b1-3)GlcNAc
# In short: as §1
# [6] = biological target: Gal(b1-3)GlcNAc(a1-3)Gal(b1-4)GlcNAc
# In short: as §1
# [7] = biological target: Gal(b1-3)GlcNAc(a1-6)Gal(b1-4)GlcNAc
# In short: as §1
# Gal(b1-3)GlcNAc(b1-2)Man = biological target: Gal(b1-3)GlcNAc(b1-2)Man
# In short: as §1
# [8] = biological target: Gal(b1-3)GlcNAc(b1-2)Man(a1-3)[Gal(b1-3)GlcNAc(b1-2)Man(a1-6)]Man(b1-4)GlcNAc(b1-4)GlcNAc
# In short: as §1
# [9] = biological target: Gal(b1-3)GlcNAc(b1-2)Man(a1-3)[Gal(b1-3)GlcNAc(b1-2)Man(a1-6)]Man(b1-4)GlcNAc(b1-4)[Fuc(a1-6)]GlcNAc
# In short: as §1
# [10] = biological target: Gal(b1-3)GlcNAc(b1-2)Man(a1-3)[GlcNAc(b1-4)][Gal(b1-3)GlcNAc(b1-2)Man(a1-6)]Man(b1-4)GlcNAc(b1-4)GlcNAc
# In short: as §1
# [11] = biological target: Gal(b1-3)GlcNAc(b1-2)[Gal(b1-3)GlcNAc(b1-6)]Man(a1-6)[Gal(b1-3)GlcNAc(b1-2)Man(a1-3)]Man(b1-4)GlcNAc(b1-4)GlcNAc
# In short: as §1
# [12] = biological target: Gal(b1-3)GlcNAc(b1-3)Gal(b1-3)GlcNAc
# In short: as §1
# [13] = biological target: Gal(b1-3)GlcNAc(b1-3)Gal(b1-4)Glc
# In short: as §1
# [14] = biological target: Gal(b1-3)GlcNAc(b1-3)Gal(b1-4)GlcNAc
# In short: as §1
# [15] = biological target: Gal(b1-3)GlcNAc(b1-3)Gal(b1-4)GlcNAc(b1-2)Man(a1-3)[Gal(b1-3)GlcNAc(b1-3)Gal(b1-4)GlcNAc(b1-2)Man(a1-6)]Man(b1-4)GlcNAc(b1-4)GlcNAc
# In short: as §1
# [16] = biological target: Gal(b1-3)GlcNAc(b1-3)Gal(b1-4)GlcNAc(b1-2)[Gal(b1-3)GlcNAc(b1-3)Gal(b1-4)GlcNAc(b1-6)]Man(a1-6)[Gal(b1-3)GlcNAc(b1-3)Gal(b1-4)GlcNAc(b1-2)Man(a1-3)]Man(b1-4)GlcNAc(b1-4)[Fuc(a1-6)]GlcNAc
# In short: as §1
# [17] = biological target: Gal(b1-3)GlcNAc(b1-3)Gal(b1-4)GlcNAc(b1-3)Gal(b1-4)GlcNAc(b1-2)[Gal(b1-3)GlcNAc(b1-3)Gal(b1-4)GlcNAc(b1-3)Gal(b1-4)GlcNAc(b1-6)]Man(a1-6)[Gal(b1-3)GlcNAc(b1-3)Gal(b1-4)GlcNAc(b1-3)Gal(b1-4)GlcNAc(b1-2)Man(a1-3)]Man(b1-4)GlcNAc(b1-4)[Fuc(a1-6)]GlcNAc
# In short: as §1
# [18] = biological target: Gal(b1-3)GlcNAc(b1-3)Gal(b1-4)GlcNAc(b1-6)[Gal(b1-3)GlcNAc(b1-3)]Gal(b1-4)Glc
# In short: as §1
# [19] = biological target: Gal(b1-3)GlcNAc(b1-3)Gal(b1-4)[Fuc(a1-3)]GlcNAc
# In short: as §1
# [20] = biological target: Gal(b1-3)GlcNAc(b1-3)Gal(b1-4)[Fuc(a1-3)]GlcNAc(b1-6)[Gal(b1-3)GlcNAc(b1-3)]Gal(b1-4)Glc
# In short: as §1
# [21] = biological target: Gal(b1-3)GlcNAc(b1-3)GalNAc
# In short: as §1
# [22] = biological target: Gal(b1-3)GlcNAc(b1-6)Gal(b1-4)GlcNAc
# In short: as §1
# [23] = biological target: Gal(b1-3)GlcNAc(b1-6)GalNAc
# In short: as §1
# [24] = biological target: Gal(b1-3)GlcNAc(b1-6)[Gal(b1-3)]GalNAc
# In short: as §1
# Gal(b1-3)GlcNAc6S = biological target: Gal(b1-3)GlcNAc6S
# In short: as §1
# [25] = biological target: Gal(b1-3)[Fuc(a1-4)]GlcNAc
# In short: as §1
# [26] = biological target: Gal(b1-3)[Fuc(a1-4)]GlcNAc(b1-2)Man
# In short: as §1
# [27] = biological target: Gal(b1-3)[Fuc(a1-4)]GlcNAc(b1-2)Man(a1-3)[Gal(b1-3)[Fuc(a1-4)]GlcNAc(b1-2)Man(a1-6)]Man(b1-4)GlcNAc(b1-4)[Fuc(a1-6)]GlcNAc
# In short: as §1
# [28] = biological target: Gal(b1-3)[Fuc(a1-4)]GlcNAc(b1-3)Gal(b1-3)[Fuc(a1-4)]GlcNAc
# In short: as §1
# [29] = biological target: Gal(b1-3)[Fuc(a1-4)]GlcNAc(b1-3)Gal(b1-4)[Fuc(a1-3)]GlcNAc
# In short: as §1
# [30] = biological target: Gal(b1-3)[Fuc(a1-4)]GlcNAc(b1-6)GalNAc
# In short: as §1
# [31] = biological target: Gal(b1-3)[GlcNAc(b1-6)]GalNAc
# In short: as §1
# [32] = biological target: Gal(b1-3)[Neu5Ac(a2-6)]GalNAc
# In short: as §1
# [33] = biological target: Gal(b1-3)[Neu5Ac(a2-6)]GlcNAc(b1-4)Gal(b1-4)Glc
# In short: as §1
# [34] = biological target: Gal(b1-3)[Neu5Ac(b2-6)]GalNAc
# In short: as §1
# Gal(b1-4)Gal = biological target: Gal(b1-4)Gal
# In short: as §1
# [35] = biological target: Gal(b1-4)GalNAc(a1-3)[Fuc(a1-2)]Gal(b1-4)GlcNAc
# In short: as §1
binder,measurement,setting,value
"EfCBM33A (Enterococcus faecalis), Q838S1 (protein) MKKSLLTIVLAFSFVLGGAALAPTVSEAHGYVASPGSRAFFGSSAGGNLNTNVGRAQWEPQSIEAPKNTFITGKLASAGVSGFEPLDEQTATRWHKTNITTGPLDITWNLTAQHRTASWDYYITKNGWNPNQPLDIKNFDKIASIDGKQEVPNKVVKQTINIPTDRKGYHVIYAVWGIGDTVNAFYQAIDVNIQ",glycan array binding signal (z-score),Gal(a1-6)Glc,-0.904
same,glycan array binding signal (z-score),Gal(b1-2)Gal,0.182
same,glycan array binding signal (z-score),Gal(b1-3)Gal,0.159
same,glycan array binding signal (z-score),Gal(b1-3)Gal(b1-4)GlcNAc,-0.017
same,glycan array binding signal (z-score),Gal(b1-3)GalNAc,0.774
same,glycan array binding signal (z-score),[1],1.35
same,glycan array binding signal (z-score),[2],-1.18
same,glycan array binding signal (z-score),Gal(b1-3)GalNAc(b1-3)Gal,-0.58
same,glycan array binding signal (z-score),[3],0.56
same,glycan array binding signal (z-score),[4],-0.489
same,glycan array binding signal (z-score),[5],-0.003
same,glycan array binding signal (z-score),Gal(b1-3)GlcNAc,-0.112
same,glycan array binding signal (z-score),[6],0.358
same,glycan array binding signal (z-score),[7],-1.02
same,glycan array binding signal (z-score),Gal(b1-3)GlcNAc(b1-2)Man,0.27
same,glycan array binding signal (z-score),[8],-0.145
same,glycan array binding signal (z-score),[9],-1.82
same,glycan array binding signal (z-score),[10],0.324
same,glycan array binding signal (z-score),[11],0.094
same,glycan array binding signal (z-score),[12],-0.688
same,glycan array binding signal (z-score),[13],-0.371
same,glycan array binding signal (z-score),[14],2.06
same,glycan array binding signal (z-score),[15],0.319
same,glycan array binding signal (z-score),[16],0.239
same,glycan array binding signal (z-score),[17],0.259
same,glycan array binding signal (z-score),[18],0.202
same,glycan array binding signal (z-score),[19],-0.578
same,glycan array binding signal (z-score),[20],0.039
same,glycan array binding signal (z-score),[21],-0.372
same,glycan array binding signal (z-score),[22],0.238
same,glycan array binding signal (z-score),[23],0.08
same,glycan array binding signal (z-score),[24],-1.31
same,glycan array binding signal (z-score),Gal(b1-3)GlcNAc6S,-0.191
same,glycan array binding signal (z-score),[25],0.239
same,glycan array binding signal (z-score),[26],0.661
same,glycan array binding signal (z-score),[27],0.012
same,glycan array binding signal (z-score),[28],-1.4
same,glycan array binding signal (z-score),[29],-1.13
same,glycan array binding signal (z-score),[30],1.97
same,glycan array binding signal (z-score),[31],-0.355
same,glycan array binding signal (z-score),[32],-0.171
same,glycan array binding signal (z-score),[33],0.516
same,glycan array binding signal (z-score),[34],-2.01
same,glycan array binding signal (z-score),Gal(b1-4)Gal,0.938
same,glycan array binding signal (z-score),[35],-0.429

# 2 records drawn at random from those above, as already listed:
binder,measurement,setting,value
"EfCBM33A (Enterococcus faecalis), Q838S1 (protein) MKKSLLTIVLAFSFVLGGAALAPTVSEAHGYVASPGSRAFFGSSAGGNLNTNVGRAQWEPQSIEAPKNTFITGKLASAGVSGFEPLDEQTATRWHKTNITTGPLDITWNLTAQHRTASWDYYITKNGWNPNQPLDIKNFDKIASIDGKQEVPNKVVKQTINIPTDRKGYHVIYAVWGIGDTVNAFYQAIDVNIQ",glycan array binding signal (z-score),[8],-0.145
same,glycan array binding signal (z-score),[20],0.039
